# Assay results published in patent US8652522B2, “Pharmaceutical composition of an iontophoresis” (Teikoku Seiyaku Co., Ltd., priority 2009, dated 2014).
# Read-outs that look alike come from different tables or passages of the source.
# Legend:
# [1] = individual administered for 120 minutes, exposure […]
# Description: (§1) After that, an embedded freezing block was directed to the cutter of the microtome stage for mounting (CRYOMACROCUT, Leica), and a femoral region thereof was directed to the front, and a neck region was directed to the backside, and was fixed with being in close contact with the backside of the leg to the stage for mounting. When the stage for mounting of microtome was slid, the cutter was contacted perpendicular with the narrow side of the rectangular, the upper surface of this was chipped off as a sliced segment, the sliced segment was in close contact to the adhesive tape, and removed. This operation was repeated a couple dozens times, it was cleaved from the front portion of the knee to the backside portion, a segment of the administration and current-carrying part was (1) to (7) (from the front to the backside) in order of precedence.
# [2] = for average of radioactivity density: blood plasma
# Experimental: (§2) Moreover, the condition of the transdermally administration in association with the treatment of applying current is as follows.
# (§3) This was funneled into a patch comprising an electrode and an adhesion layer, and cooled down at −80° C. to obtain a desired drug product.
# Two NZ family male rabbits to be devoted to the test was bought from […] LABES Co., Ltd., (Charles River Japan, Inc.). […] The observation of the animal during the preliminary breeding and the test, as to a hair coat, a skin and a excretory substance was carried out every day.
# The administration route: the transdermally administration in association with the treatment of applying current
# The radioactivity density assay in the blood plasma was carried out as follows.
# A sample for assay was treated by adding the solubilizing agent, and the measurement of the sample was carried out by using the liquid scintillation counter (LSC-1000, ALOKA). The limit of determinate quantity was two folds of the background, and the lesser value of the limit was determined as ND. The radioactivity density assay in the blood plasma was calculated from the measured value.
# The radioactivity density is used as indication pointer, the calibrated concentration of the chemical drug converted with unaltered substance was calculated by the following formula. The calibrated concentration of the chemical drug (μg eq./mL)=The radioactivity density in the sample (dpm/mL)/{the amount of the administration radioactivity (dpm)/the amount of the administration chemical drug (μg)}
# [3] = Experimental: as §2, §3, §1
# [4] = pH 2
# [5] = rabbit (1) for 120 min., segment No. (5)
# [6] = rabbit (2) for 30 min., segment No. (2)
# [7] = rabbit (2) for 30 min., segment No. (3)
# [8] = rabbit (2) for 30 min., segment No. (5)
# [9] = rabbit (2) for 30 min., segment No. (6)
smiles,measurement,setting,value
CC1CC2C3CCC4=CC(=O)C=CC4(C)C3(F)C(O)CC2(C)C1(O)C(=O)COP(=O)([O-])[O-].[Na+].[Na+] (stereo not drawn) [[^3H] Betamethasone-21-phosphate disodium salt],"intensity of the radioactivity, knee arthrosis of non-administration and non-treatment",[1],background level
same,average of radioactivity density,"[2]; 30 min. administration individual, 10 minutes",271 dpm/mL
same,average of radioactivity density,"[2]; 30 min. administration individual, 20 minutes",937 dpm/mL
same,average of radioactivity density,"[2]; 30 min. administration individual, 30 minutes",3155 dpm/mL
same,average of radioactivity density,"[2]; 120 min. administration individual, 10 minutes",1473.0 dpm/mL
same,average of radioactivity density,"[2]; 120 min. administration individual, 20 minutes",3467.0 dpm/mL
same,average of radioactivity density,"[2]; 120 min. administration individual, 30 minutes",8575.0 dpm/mL
same,average of radioactivity density,"[2]; 120 min. administration individual, 60 minutes",24502.2 dpm/mL
same,average of radioactivity density,"[2]; 120 min. administration individual, 90 minutes",33662.0 dpm/mL
same,average of radioactivity density,"[2]; 120 min. administration individual, 120 minutes",43142.0 dpm/mL
same,time of maximum numeric value of the radioactive concentration in the blood plasma,"[2]; individual administered for 120 minutes, still tended to rise",120 min
same,"concentration of the chemical drug in the epithelial region tissue, 30 minutes individual compared with 120 minutes individual",[3]; high density region in the epithelium,1.35 folds
same,"radioactivity density, articular capsule surrounding tissue",[3]; [5],0.41 (PSL−BG)/area
same,"radioactivity density, inside of perimysia",[3]; [5],18.03 (PSL−BG)/area
same,"radioactivity density, outside of perimysia",[3]; [5],39.93 (PSL−BG)/area
same,"radioactivity density, maximum blackened region","[3]; rabbit (1) for 120 min., segment No. (5), disodium salt",807 (PSL−BG)/area
same,"radioactivity density, articular capsule surrounding tissue",[3]; [6],0.09 (PSL−BG)/area
same,"radioactivity density, inside of perimysia",[3]; [6],0.62 (PSL−BG)/area
same,"radioactivity density, maximum blackened region",[3]; [6],42.49 (PSL−BG)/area
same,"radioactivity density, outside of perimysia",[3]; [6],45.44 (PSL−BG)/area
same,"radioactivity density, articular capsule surrounding tissue",[3]; [7],0.03 (PSL−BG)/area
same,"radioactivity density, inside of perimysia",[3]; [7],24.62 (PSL−BG)/area
same,"radioactivity density, maximum blackened region",[3]; [7],97.16 (PSL−BG)/area
same,"radioactivity density, outside of perimysia",[3]; [7],47.25 (PSL−BG)/area
same,"radioactivity density, articular capsule surrounding tissue",[3]; [8],0.42 (PSL−BG)/area
same,"radioactivity density, inside of perimysia",[3]; [8],13.87 (PSL−BG)/area
same,"radioactivity density, maximum blackened region",[3]; [8],1091.13 (PSL−BG)/area
same,"radioactivity density, outside of perimysia",[3]; [8],49.69 (PSL−BG)/area
same,"radioactivity density, articular capsule surrounding tissue",[3]; [9],0.3 (PSL−BG)/area
same,"radioactivity density, inside of perimysia",[3]; [9],12.3 (PSL−BG)/area
same,"radioactivity density, maximum blackened region",[3]; [9],843.74 (PSL−BG)/area
same,"radioactivity density, outside of perimysia",[3]; [9],57.07 (PSL−BG)/area
C[C@H]1C[C@H]2[C@@H]3CCC4=CC(=O)C=C[C@]4(C)[C@@]3(F)[C@@H](O)C[C@]2(C)[C@@]1(O)C(=O)COP(=O)([O-])[O-].[Na+].[Na+] [betamethasone sodium phosphate],stability of the chemical drug,[4],increased according to the increase of pH value
